# Results are given in words; binding and its absence hold for the method and conditions named. In cells and extracts the contact can be indirect. Here binding means that the protein was enriched with, or labelled near, the bait; the list need not be complete. Where a sequence is shown, tags or fusion partners need not be part of it.
# Amino acid sequences for entries named in this document (tags omitted). Residues count along the entry.
# UniProt G3I8R9, residues 19-654: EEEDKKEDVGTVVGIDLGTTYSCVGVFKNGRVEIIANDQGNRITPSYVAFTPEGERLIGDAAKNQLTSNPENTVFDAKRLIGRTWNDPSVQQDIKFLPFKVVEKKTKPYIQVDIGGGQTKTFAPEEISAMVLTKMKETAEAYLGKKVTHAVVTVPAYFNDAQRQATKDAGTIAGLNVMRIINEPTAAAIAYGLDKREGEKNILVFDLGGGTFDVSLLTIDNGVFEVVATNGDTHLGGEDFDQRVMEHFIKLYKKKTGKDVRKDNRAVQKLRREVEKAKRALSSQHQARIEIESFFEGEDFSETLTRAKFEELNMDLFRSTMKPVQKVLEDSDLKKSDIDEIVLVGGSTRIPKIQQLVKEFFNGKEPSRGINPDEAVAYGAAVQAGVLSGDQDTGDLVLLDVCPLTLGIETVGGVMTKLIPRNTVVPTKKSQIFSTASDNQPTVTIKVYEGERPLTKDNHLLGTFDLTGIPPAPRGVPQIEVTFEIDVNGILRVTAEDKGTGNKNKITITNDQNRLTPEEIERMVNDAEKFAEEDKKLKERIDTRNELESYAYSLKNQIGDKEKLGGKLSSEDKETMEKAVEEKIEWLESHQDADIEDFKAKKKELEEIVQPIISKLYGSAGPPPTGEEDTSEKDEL
# Target: T1, FLAG-M1-MANF (UniProt Q9CXI5)
# T1 sequence: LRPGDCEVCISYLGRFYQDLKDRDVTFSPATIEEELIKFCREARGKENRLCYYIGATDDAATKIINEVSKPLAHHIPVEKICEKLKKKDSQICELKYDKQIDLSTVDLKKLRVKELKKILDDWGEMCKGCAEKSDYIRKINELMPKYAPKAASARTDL
# Test: affinity purification with mass spectrometry; in vivo cross-linking with 1 mM DSP, lysis in TBS/Ca2+ buffer, ANTI-FLAG-M1 agarose IP of FLAG-M1-MANF from CHO-K1 S21 MANF-/- cells; Coomassie bands excised and analysed by mass spectrometry
row,binding,Substance
1,binds,Grp94
2,binds,endogenous BiP (CHO-K1 S21 cells) (from UniProt G3I8R9 19-654)

# — publication PMC6358605
